PubChem BioAssay AID504804 | Drosophila RNAi Screening Center | 2011

Assay: 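Knock-downs shielding fly cells from apoptosis caused by DNA damage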 (primary screen)
System: Drosophila Kc cells
Knock-down reagent: long dsRNA against Drosophila genes, 0.5 µg dsRNA per well
Timing: 96 h (48 h knock-down, then 48 h drug)
Treatment: doxorubicin 5 µg/ml for 48 h, added 48 h after dsRNA
Measurement: 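Luminescent ATP counts per replicate, not normalised, reflecting viable cells after 48 h dsRNA knock-down followed by 48 h of 5 µg/ml doxorubicin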
Direction: raw ATP luminescence: higher = more viable cells, protection from doxorubicin
Active means: 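z-score of 2 or more over plate mean in both duplicates, retained only when retests and separate dsRNAs confirm the protection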
The screen tested about 19,000 reagents; this is an unselected part of those with a known target gene and a result. Of all reagents, 47 (0.25%) were called active. 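Signals are raw, not normalised; exact z-scores behind calls not deposited; actives needed confirmation, so some wells reaching 2 SD are inactive.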 A plus sign joins genes that one reagent is predicted to hit.

gene | amplicon | raw ATP luminescence, replicate 1 | raw ATP luminescence, replicate 2 | Outcome
ECSIT | DRSC12348 | 54483 | 56547 | inactive
BthD | DRSC19395 | 3.14e5 | 3.12e5 | inactive
CG4968 | DRSC02794 | 88453 | 76577 | inactive
ATP8 (retired record) | DRSC21277 | 3.53e5 | 3.74e5 | inactive
ewg | DRSC18773 | 56480 | 46350 | inactive
CG42335 | DRSC14597 | 56210 | 59170 | inactive
CG42335 | DRSC15892 | 55120 | 63750 | inactive
qua | DRSC03598 | 61753 | 74883 | inactive
CG13577 | DRSC04213 | 54187 | 51510 | inactive
CG6654 | DRSC16084 | 63160 | 21463 | inactive
CG15084 | DRSC06515 | 64717 | 46683 | inactive
CG16786 | DRSC04281 | 61173 | 46403 | inactive
dysf | DRSC14529 | 61940 | 57730 | inactive
dysf | DRSC14895 | 65310 | 61220 | inactive
dysf | DRSC14896 | 81020 | 57050 | inactive
dysf | DRSC14897 | 16150 | 16230 | inactive
CG3526 | DRSC17240 | 1.92e5 | 2.02e5 | inactive
CG3526 | DRSC18636 | 72130 | 47690 | inactive
CG9316 | DRSC03195 | 70453 | 66387 | inactive
CG16723 | DRSC15138 | 63620 | 46380 | inactive
Zdhhc8 | DRSC18044 | 2.44e5 | 2.65e5 | inactive
Zdhhc8 | DRSC18122 | 3.80e5 | 3.46e5 | inactive
CG18179 | DRSC10303 | 1.04e5 | 79397 | inactive
CG3610 | DRSC15502 | 61470 | 77000 | inactive
Srp72 | DRSC15800 | 44680 | 47140 | inactive
Cul2 | DRSC03710 | 58103 | 61267 | inactive
Osi22 | DRSC16442 | 68530 | 68130 | inactive
CG14395 | DRSC14852 | 55567 | 46547 | inactive
CG5355 | DRSC02844 | 88410 | 70770 | inactive
P5CS | DRSC11831 | 24880 | 18737 | inactive
P5CS | DRSC11832 | 66007 | 55667 | inactive
CG5916 | DRSC15917 | 41823 | 64697 | inactive
kri | DRSC10515 | 41807 | 42207 | inactive
I-3 | DRSC20479 | 3.07e5 | 2.71e5 | inactive
CG15539 | DRSC15075 | 49890 | 43560 | inactive
CG30154 | DRSC05889 | 1.73e5 | 89687 | inactive
CG34428 | DRSC10119 | 93423 | 1.52e5 | inactive
Art8 | DRSC02530 | 47933 | 90573 | inactive
shrb | DRSC07061 | 30330 | 33423 | inactive
akirin | DRSC11000 | 35740 | 34553 | inactive
TwdlQ | DRSC14745 | 23070 | 25970 | inactive
nito | DRSC05943 | 57670 | 53230 | inactive
Ssu72 | DRSC19572 | 3.21e5 | 2.95e5 | inactive
puml | DRSC06793 | 49263 | 85270 | inactive
Mettl2 | DRSC08398 | 63550 | 69623 | inactive
TTLL15 | DRSC15543 | 62823 | 50260 | inactive
retinin | DRSC09940 | 63663 | 55683 | inactive
insc | DRSC04695 | 50317 | 45137 | inactive
Mvk + CG33672 + spt4 | DRSC05356 | 1.05e5 | 1.05e5 | inactive
Mvk + CG33672 + spt4 | DRSC06628 | 50540 | 50010 | inactive
dikar | DRSC09699 | 37740 | 34303 | inactive
Cip4 | DRSC08091 | 1.64e5 | 1.80e5 | inactive
Cip4 | DRSC08469 | 31167 | 41323 | inactive
beat-Vb | DRSC12940 | 2.41e5 | 2.55e5 | inactive
beat-Vb | DRSC14844 | 1.75e5 | 2.00e5 | inactive
beat-Vb | DRSC14845 | 48297 | 57240 | inactive

13 of these entries, reformatted.
{"gene": "CG15539", "amplicon": "DRSC15075", "raw ATP luminescence, replicate 1": 49890, "raw ATP luminescence, replicate 2": 43560, "Outcome": "inactive"}
{"gene": "CG30154", "amplicon": "DRSC05889", "raw ATP luminescence, replicate 1": 1.73e5, "raw ATP luminescence, replicate 2": 89687, "Outcome": "inactive"}
{"gene": "CG34428", "amplicon": "DRSC10119", "raw ATP luminescence, replicate 1": 93423, "raw ATP luminescence, replicate 2": 1.52e5, "Outcome": "inactive"}
{"gene": "Art8", "amplicon": "DRSC02530", "raw ATP luminescence, replicate 1": 47933, "raw ATP luminescence, replicate 2": 90573, "Outcome": "inactive"}
{"gene": "shrb", "amplicon": "DRSC07061", "raw ATP luminescence, replicate 1": 30330, "raw ATP luminescence, replicate 2": 33423, "Outcome": "inactive"}
{"gene": "akirin", "amplicon": "DRSC11000", "raw ATP luminescence, replicate 1": 35740, "raw ATP luminescence, replicate 2": 34553, "Outcome": "inactive"}
{"gene": "TwdlQ", "amplicon": "DRSC14745", "raw ATP luminescence, replicate 1": 23070, "raw ATP luminescence, replicate 2": 25970, "Outcome": "inactive"}
{"gene": "nito", "amplicon": "DRSC05943", "raw ATP luminescence, replicate 1": 57670, "raw ATP luminescence, replicate 2": 53230, "Outcome": "inactive"}
{"gene": "Ssu72", "amplicon": "DRSC19572", "raw ATP luminescence, replicate 1": 3.21e5, "raw ATP luminescence, replicate 2": 2.95e5, "Outcome": "inactive"}
{"gene": "puml", "amplicon": "DRSC06793", "raw ATP luminescence, replicate 1": 49263, "raw ATP luminescence, replicate 2": 85270, "Outcome": "inactive"}
{"gene": "Mettl2", "amplicon": "DRSC08398", "raw ATP luminescence, replicate 1": 63550, "raw ATP luminescence, replicate 2": 69623, "Outcome": "inactive"}
{"gene": "TTLL15", "amplicon": "DRSC15543", "raw ATP luminescence, replicate 1": 62823, "raw ATP luminescence, replicate 2": 50260, "Outcome": "inactive"}
{"gene": "retinin", "amplicon": "DRSC09940", "raw ATP luminescence, replicate 1": 63663, "raw ATP luminescence, replicate 2": 55683, "Outcome": "inactive"}

Additional entries:
gene | amplicon | raw ATP luminescence, replicate 1 | raw ATP luminescence, replicate 2 | Outcome
RpL13A | DRSC12265 | 43887 | 22367 | inactive
PPO1 | DRSC05929 | 67680 | 57760 | inactive
His-Psi:CR31616 + His-Psi:CR31615 | DRSC03760 | 50343 | 47580 | inactive
edin | DRSC09488 | 49700 | 44523 | inactive
Ttc19 | DRSC02474 | 55527 | 67083 | inactive
CG8563 | DRSC10996 | 68517 | 86053 | inactive
CG13063 | DRSC09946 | 42087 | 36900 | inactive
bbx + waw | DRSC20589 | 2.86e5 | 2.70e5 | inactive
CG6295 | DRSC16012 | 44530 | 39210 | inactive
pira | DRSC19494 | 3.22e5 | 3.17e5 | inactive
edl | DRSC06516 | 63163 | 71177 | inactive
udt | DRSC14214 | 61410 | 53690 | inactive
Cth | DRSC07422 | 76203 | 66057 | inactive
Cadps | DRSC21057 | 3.80e5 | 3.44e5 | inactive
Ir7d | DRSC18010 | 43820 | 46690 | inactive
CG9010 | DRSC07320 | 69107 | 62323 | inactive
htk | DRSC20029 | 2.46e5 | 2.70e5 | inactive
CG8840 | DRSC00713 | 24067 | 23860 | inactive
Hmx | DRSC15884 | 80600 | 66880 | inactive
Hmx | DRSC16706 | 93850 | 96010 | inactive
CG13538 | DRSC04180 | 71853 | 49713 | inactive
RabGGTa | DRSC12189 | 43297 | 41627 | inactive
Ptr | DRSC04852 | 33360 | 43850 | inactive
Mettl3 | DRSC15921 | 72650 | 71200 | inactive
Tsp42Ef | DRSC06191 | 43047 | 85150 | inactive
CG31097 | DRSC14666 | 55220 | 49770 | inactive
CG18754 | DRSC15387 | 55080 | 54650 | inactive
CG32767 | DRSC18386 | 51320 | 46180 | inactive
